Consider one substance from PMC7526537.

Sequences of proteins named here, by UniProt entry; tags and fusion partners are left off. A change or cut given only in a name is not applied to a line headed by its entry.
UniProt P41212: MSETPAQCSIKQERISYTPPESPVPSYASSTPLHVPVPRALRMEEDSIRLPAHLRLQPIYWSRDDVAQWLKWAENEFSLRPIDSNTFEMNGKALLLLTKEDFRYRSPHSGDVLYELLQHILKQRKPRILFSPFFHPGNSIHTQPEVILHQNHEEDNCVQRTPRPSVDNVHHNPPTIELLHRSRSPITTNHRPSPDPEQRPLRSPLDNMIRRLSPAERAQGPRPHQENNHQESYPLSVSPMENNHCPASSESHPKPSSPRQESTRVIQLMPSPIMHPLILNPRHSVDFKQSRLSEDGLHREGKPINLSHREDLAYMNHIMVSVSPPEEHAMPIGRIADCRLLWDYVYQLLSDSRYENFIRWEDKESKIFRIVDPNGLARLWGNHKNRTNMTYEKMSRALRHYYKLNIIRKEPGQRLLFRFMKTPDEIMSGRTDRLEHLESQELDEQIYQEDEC
UniProt O15379: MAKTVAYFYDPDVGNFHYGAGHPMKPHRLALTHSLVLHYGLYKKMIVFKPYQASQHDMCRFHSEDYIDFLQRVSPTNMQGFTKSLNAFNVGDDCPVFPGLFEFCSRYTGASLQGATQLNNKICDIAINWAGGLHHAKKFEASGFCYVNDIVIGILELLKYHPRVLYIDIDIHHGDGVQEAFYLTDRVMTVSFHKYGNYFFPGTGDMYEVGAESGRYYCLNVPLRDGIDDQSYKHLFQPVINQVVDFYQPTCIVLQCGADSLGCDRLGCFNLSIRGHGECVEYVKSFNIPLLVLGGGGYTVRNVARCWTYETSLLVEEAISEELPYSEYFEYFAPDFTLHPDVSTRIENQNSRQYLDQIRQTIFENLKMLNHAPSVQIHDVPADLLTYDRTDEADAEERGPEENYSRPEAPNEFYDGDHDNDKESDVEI

These are yes or no findings as the source states them, for the method shown. Binding seen in cells or lysates may run through a third protein. Some binding calls cover weakened binding; strength is not graded here.

The test concerns the target ETV6 (ETS family transcription repressor and tumor suppressor variant 6), WT (human (endogenous in PBMCs)) (UniProt P41212). Briefly: co-IP; lysate of healthy control PBMCs incubated with anti-ETV6 antibody and rec-Protein G-sepharose beads overnight at 4°C; beads washed 3 times with 1x PBS; eluate blotted for HDAC3, NCOR2 and α-tubulin.

For “HDAC3 (from UniProt O15379 1-428) (enzyme)”, the binding result is listed as “binds”.
